These are yes or no findings as the source states them, for the method shown. Binding seen in cells or lysates may run through a third protein. Binding can be weak; no strength is given.
Target: STAT3 (human (endogenous in EC1 and EC109)) (UniProt P40763)
Assay: co-IP; 2 ug anti-STAT3 monoclonal antibody added to 500 ug lysate (cell lytic M), overnight at 4°C, protein G Plus/A beads, washed with cold PBS and lysis buffer, Western blot; EC1 and EC109 cells 48 hours after transfection of STAT1C or empty vector

Sequences of proteins named here, by UniProt entry; tags and fusion partners are left off. A change or cut given only in a name is not applied to a line headed by its entry.
UniProt P40763: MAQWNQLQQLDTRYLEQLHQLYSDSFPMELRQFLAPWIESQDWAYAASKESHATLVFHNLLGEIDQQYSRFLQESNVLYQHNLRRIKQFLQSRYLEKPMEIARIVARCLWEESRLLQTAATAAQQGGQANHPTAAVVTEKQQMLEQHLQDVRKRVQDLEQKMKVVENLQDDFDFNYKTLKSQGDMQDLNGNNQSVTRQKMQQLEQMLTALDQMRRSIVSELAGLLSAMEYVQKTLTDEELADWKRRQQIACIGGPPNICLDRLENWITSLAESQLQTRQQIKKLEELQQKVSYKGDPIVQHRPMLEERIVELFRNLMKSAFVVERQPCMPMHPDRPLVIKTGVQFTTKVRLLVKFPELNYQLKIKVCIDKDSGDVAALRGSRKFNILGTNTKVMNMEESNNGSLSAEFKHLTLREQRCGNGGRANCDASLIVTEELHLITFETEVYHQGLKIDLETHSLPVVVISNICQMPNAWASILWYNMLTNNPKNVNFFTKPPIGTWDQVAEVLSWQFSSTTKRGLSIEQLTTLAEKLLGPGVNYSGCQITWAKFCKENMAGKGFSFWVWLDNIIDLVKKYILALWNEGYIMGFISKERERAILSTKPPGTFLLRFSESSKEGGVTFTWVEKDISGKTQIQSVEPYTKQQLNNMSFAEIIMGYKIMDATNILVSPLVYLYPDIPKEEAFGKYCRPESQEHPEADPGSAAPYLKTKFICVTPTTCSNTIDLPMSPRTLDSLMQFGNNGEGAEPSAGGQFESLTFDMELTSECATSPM
UniProt P42224: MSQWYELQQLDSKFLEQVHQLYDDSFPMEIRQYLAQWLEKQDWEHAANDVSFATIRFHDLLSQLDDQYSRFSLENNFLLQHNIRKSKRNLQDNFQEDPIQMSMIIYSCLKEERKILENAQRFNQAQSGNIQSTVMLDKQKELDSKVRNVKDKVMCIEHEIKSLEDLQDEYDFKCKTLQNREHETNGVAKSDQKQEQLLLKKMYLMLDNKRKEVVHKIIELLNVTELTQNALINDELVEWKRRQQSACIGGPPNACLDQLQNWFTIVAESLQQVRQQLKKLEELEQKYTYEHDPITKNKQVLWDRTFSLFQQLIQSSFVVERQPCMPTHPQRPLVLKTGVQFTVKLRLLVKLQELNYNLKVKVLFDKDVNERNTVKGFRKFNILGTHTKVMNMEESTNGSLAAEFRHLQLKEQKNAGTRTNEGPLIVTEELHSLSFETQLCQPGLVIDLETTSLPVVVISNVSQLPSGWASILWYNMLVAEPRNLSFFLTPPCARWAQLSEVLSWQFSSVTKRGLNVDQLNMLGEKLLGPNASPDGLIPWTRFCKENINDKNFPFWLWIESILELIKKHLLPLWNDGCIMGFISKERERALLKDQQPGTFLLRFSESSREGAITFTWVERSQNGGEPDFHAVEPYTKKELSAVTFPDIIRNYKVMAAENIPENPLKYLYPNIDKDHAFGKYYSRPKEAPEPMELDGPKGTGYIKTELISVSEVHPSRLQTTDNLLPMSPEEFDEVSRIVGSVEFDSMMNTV

binding: binds
Substance: FLAG-tagged STAT1C (constitutively active form of STAT1) (from UniProt P42224)
